Data as given in PubChem BioAssay AID743454 (Peter MacCallum Cancer Centre, 2014)
Shown is one part, drawn at random, of about 18,000 deposited reagents. 450 of them (2.5%) were called active. 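Single biological run; no consistent viability z cut-off exists, so the class columns, not z-scores, define the calls.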

Screen: 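Knock-downs lowering viability or raising caspase 3/7 activity in vorinostat-treated resistant cells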 (primary screen)
Cell system: human HCT116-VR colon cancer cells, selected for vorinostat resistance
Reagent: siRNA pool against human genes, 40 nM siRNA pool
Timing: vorinostat for 24 h, read-out about 72 h after transfection
Challenge: vorinostat at 2.5 µM final
Measured: 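Cell viability by CellTiter-Fluor and caspase 3/7 activity by luminescence, each scaled to mock wells per plate, duplicates averaged, then robust z-scored over all plates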
Direction: viability robust z-score: higher = more viable cells than screen typical; caspase robust z-score: higher = more caspase 3/7 activity than screen typical
Hit rule: 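a knock-down is a hit when classed RV1 or RV2 for lowered viability, or CA1 or CA2 for caspase activation; those lethal without drug were dropped; hits were retested singly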

| gene symbol | viability hit class | caspase hit class | viability robust z-score | caspase robust z-score | Outcome |
| --- | --- | --- | --- | --- | --- |
| COL24A1 | no change | no change | 1.25 | -0.98 | inactive |
| CHTOP | no change | no change | 0.44 | -0.5 | inactive |
| OR1I1 | no change | no change | -1.23 | -0.46 | inactive |
| TPO | no change | no change | -1.33 | 1.62 | inactive |
| LZTS3 | no change | no change | -0.43 | 2.6 | inactive |
| LOC402715 | no change | no change | 0.06 | 0.05 | inactive |
| MAP6 | no change | no change | 0.6 | -0.38 | inactive |
| ZMYND10 | no change | no change | 0.32 | -0.88 | inactive |
| ANKRD9 | no change | no change | 0.3 | -0.28 | inactive |
| CAPZA1 | no change | no change | -0.92 | -0.4 | inactive |
| CENPN | no change | no change | -0.44 | 0.38 | inactive |
| COL17A1 | no change | no change | -1.88 | 2.67 | inactive |
| FBXO43 | no change | no change | 1.21 | 2.71 | inactive |
| CNNM4 | no change | no change | -1.01 | 1.54 | inactive |
| TRAF1 | no change | no change | -1.06 | 1.8 | inactive |
| ATP4B | no change | no change | 0.08 | -0.16 | inactive |
| TM4SF5 | no change | no change | 0.9 | 0.22 | inactive |
| CACNA2D4 | no change | no change | 0.29 | -0.55 | inactive |
| USP53 | no change | no change | 1.4 | -0.65 | inactive |
| FAM162A | no change | no change | 0.63 | -0.18 | inactive |

Reformatted: entries from further up.
{"gene symbol":"CACNA2D4","viability hit class":"no change","caspase hit class":"no change","viability robust z-score":0.29,"caspase robust z-score":-0.55,"Outcome":"inactive"}
{"gene symbol":"USP53","viability hit class":"no change","caspase hit class":"no change","viability robust z-score":1.4,"caspase robust z-score":-0.65,"Outcome":"inactive"}
{"gene symbol":"FAM162A","viability hit class":"no change","caspase hit class":"no change","viability robust z-score":0.63,"caspase robust z-score":-0.18,"Outcome":"inactive"}

Further reagents follow.
| gene symbol | viability hit class | caspase hit class | viability robust z-score | caspase robust z-score | Outcome |
| --- | --- | --- | --- | --- | --- |
| APCDD1 | no change | no change | -0.72 | 0.34 | inactive |
| SH3BP5 | no change | no change | 1.03 | -0.78 | inactive |
| FJX1 | no change | no change | -0.18 | 0.76 | inactive |
| SLC30A7 | no change | no change | 0.3 | -0.91 | inactive |
| ZNF528 | no change | no change | 0.48 | -0.3 | inactive |
| THADA | no change | no change | 1.37 | -0.12 | inactive |
| HCG9 | no change | no change | 0.22 | 0.18 | inactive |
| SIRT1 | no change | no change | 0.04 | -1.18 | inactive |
| EMC10 | no change | no change | -0.66 | 0.51 | inactive |
| MTCP1 | no change | no change | 0.66 | -0.83 | inactive |
| TRMT10C | no change | no change | 0.38 | -0.84 | inactive |
| ADH7 | no change | no change | -0.18 | -0.06 | inactive |
| P4HB | no change | no change | 0.18 | 0.72 | inactive |
| HRH1 | no change | no change | 0.16 | -0.1 | inactive |
| CPSF7 | no change | no change | -0.49 | -0.58 | inactive |
| ANKRD17 | no change | no change | -0.26 | -0.04 | inactive |
| MAP1LC3A | no change | no change | 1.08 | 1.43 | inactive |
| KIAA0930 | no change | no change | 1.56 | -0.92 | inactive |
| TMEM132B | no change | no change | 0.13 | -0.34 | inactive |
